Results are given in words; binding and its absence hold for the method and conditions named. For some assays here: Binding seen in cells or lysates may run through a third protein. Some binding calls cover weakened binding; strength is not graded here.
How the values were obtained:
[1] = molecular target: ANKRD54 wild-type with biotinylation target-domain (pEBB-pp-ANKRD54) (UniProt Q6NXT1); assay: phage display bio-panning; biotinylated ANKRD54 from transfected HEK 293T lysate immobilized on M-280 streptavidin beads, incubated with phages of a library of all 296 human SH3 domains; retained clones sequenced; three experiments; only the target purified
[2] = molecular target: commercially available recombinant ANKRD54 (UniProt Q6NXT1); assay: ELISA; phage-ELISA; commercially available recombinant ANKRD54 adhered to plastic; SH3 phage dilutions 1:10 to 1:160; data not shown; only the target purified
[3] = molecular target: T1, ANKRD54-Δ3 deletion mutant with biotinylation target-domain (UniProt Q6NXT1); assay: pull-down; streptavidin-biotin complexes of ANKRD54-BTD wt or Δ3 from transiently transfected Cos7 cells, incubated with Namalwa B-cell lysate; western blot (Fig 2B); only the target purified
T1 sequence (chain, biotin on the single acceptor lysine of the BTD): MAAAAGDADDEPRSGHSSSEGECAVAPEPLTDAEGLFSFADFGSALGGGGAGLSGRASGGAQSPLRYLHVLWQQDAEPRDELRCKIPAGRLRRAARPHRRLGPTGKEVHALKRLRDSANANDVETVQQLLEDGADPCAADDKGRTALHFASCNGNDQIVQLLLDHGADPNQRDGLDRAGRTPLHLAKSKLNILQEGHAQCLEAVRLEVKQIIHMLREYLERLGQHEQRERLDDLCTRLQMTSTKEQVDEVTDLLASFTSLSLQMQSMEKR

Amino acid sequences for entries named in this document (tags omitted). A change or cut given only in a name is not applied to a line headed by its entry. Residues count along the entry.
UniProt P42680, residues 179-239: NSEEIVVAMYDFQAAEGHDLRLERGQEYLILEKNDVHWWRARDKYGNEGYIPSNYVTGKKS
UniProt Q06187: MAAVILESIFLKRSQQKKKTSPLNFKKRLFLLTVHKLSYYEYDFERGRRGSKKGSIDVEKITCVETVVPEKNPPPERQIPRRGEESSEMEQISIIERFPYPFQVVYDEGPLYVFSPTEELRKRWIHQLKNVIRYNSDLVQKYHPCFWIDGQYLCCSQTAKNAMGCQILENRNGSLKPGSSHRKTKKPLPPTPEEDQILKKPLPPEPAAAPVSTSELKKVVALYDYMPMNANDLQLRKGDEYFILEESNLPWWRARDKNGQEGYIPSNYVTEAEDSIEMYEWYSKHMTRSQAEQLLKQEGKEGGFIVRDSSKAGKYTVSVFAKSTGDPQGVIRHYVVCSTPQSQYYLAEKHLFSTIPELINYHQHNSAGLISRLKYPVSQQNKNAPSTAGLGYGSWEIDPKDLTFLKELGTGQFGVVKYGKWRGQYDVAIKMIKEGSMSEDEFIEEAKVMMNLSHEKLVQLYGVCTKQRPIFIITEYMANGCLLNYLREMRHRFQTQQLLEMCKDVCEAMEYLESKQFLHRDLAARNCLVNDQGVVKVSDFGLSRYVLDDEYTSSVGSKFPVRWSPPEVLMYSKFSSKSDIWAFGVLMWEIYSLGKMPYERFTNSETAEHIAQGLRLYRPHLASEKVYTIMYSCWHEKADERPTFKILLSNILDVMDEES
UniProt P25911: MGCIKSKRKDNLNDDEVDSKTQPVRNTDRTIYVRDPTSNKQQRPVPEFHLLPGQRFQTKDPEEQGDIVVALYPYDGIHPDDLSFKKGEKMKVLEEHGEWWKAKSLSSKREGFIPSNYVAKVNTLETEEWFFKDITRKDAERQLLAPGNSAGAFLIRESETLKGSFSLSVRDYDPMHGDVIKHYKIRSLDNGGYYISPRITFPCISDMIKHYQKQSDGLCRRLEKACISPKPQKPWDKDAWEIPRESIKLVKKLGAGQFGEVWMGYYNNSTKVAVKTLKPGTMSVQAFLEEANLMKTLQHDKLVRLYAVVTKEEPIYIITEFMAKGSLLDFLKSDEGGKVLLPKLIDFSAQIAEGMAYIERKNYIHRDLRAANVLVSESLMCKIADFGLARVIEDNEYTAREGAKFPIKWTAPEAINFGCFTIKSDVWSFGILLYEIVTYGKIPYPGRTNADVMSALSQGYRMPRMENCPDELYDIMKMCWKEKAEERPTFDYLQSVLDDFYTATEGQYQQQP
UniProt P51451, residues 58-118: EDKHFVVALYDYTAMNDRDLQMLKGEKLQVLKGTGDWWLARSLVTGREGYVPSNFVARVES
UniProt Q13882, residues 8-72: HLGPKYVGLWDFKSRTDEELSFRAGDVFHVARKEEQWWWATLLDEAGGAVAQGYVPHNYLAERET
UniProt P35991: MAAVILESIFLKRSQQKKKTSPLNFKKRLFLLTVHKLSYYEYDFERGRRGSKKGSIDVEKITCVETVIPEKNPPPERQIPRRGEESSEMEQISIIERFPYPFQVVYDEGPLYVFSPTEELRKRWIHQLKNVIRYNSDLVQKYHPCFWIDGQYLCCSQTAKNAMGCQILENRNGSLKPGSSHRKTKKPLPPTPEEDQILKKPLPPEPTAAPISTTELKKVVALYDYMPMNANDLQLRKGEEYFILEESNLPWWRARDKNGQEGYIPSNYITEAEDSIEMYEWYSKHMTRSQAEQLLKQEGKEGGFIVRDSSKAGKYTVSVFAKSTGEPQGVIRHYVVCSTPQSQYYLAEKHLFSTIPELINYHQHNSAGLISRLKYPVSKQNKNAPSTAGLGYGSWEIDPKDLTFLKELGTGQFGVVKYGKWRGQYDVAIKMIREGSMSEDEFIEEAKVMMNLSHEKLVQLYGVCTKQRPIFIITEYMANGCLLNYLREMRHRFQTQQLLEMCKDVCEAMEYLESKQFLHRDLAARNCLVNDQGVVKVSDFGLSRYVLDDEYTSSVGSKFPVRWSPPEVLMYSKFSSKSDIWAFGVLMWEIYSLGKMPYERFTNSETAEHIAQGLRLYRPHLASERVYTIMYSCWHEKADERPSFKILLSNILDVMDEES
UniProt P07948, residues 63-123: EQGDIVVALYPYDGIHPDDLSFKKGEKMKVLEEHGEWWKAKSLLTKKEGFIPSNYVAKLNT

[4] = molecular target: ANKRD54 wild-type with biotinylation target-domain (pEBB-pp-ANKRD54) (UniProt Q6NXT1); assay: as above
[5] = molecular target: T1, ANKRD54-Δ3 deletion mutant with biotinylation target-domain; assay: co-IP; Namalwa B-cells electroporated with ANKRD54-BTD wt or Δ3; precipitation with streptavidin beads; blot for endogenous BTK (Fig 2A)
[6] = molecular target: ANKRD54 wild-type with biotinylation target-domain (pEBB-pp-ANKRD54) (UniProt Q6NXT1); assay: as above
[7] = molecular target: ANKRD54 wild-type with biotinylation target-domain (pEBB-pp-ANKRD54) (UniProt Q6NXT1); assay: pull-down; biotinylated ANKRD54-wt or Δ3 from transfected Cos7 cells on streptavidin magnetic beads, incubated with whole cell lysates of wt and Btk-KO primary mouse spleen cells; western blot (Fig 4); only the target purified
[8] = molecular target: ANKRD54 wild-type with biotinylation target-domain (pEBB-pp-ANKRD54) (UniProt Q6NXT1); assay: co-IP; immunoprecipitates of exogenous proteins from co-transfected Cos7 cells; told only in the discussion
[9] = molecular target: ANKRD54 wild-type with biotinylation target-domain (pEBB-pp-ANKRD54) (UniProt Q6NXT1); assay: pull-down; ANKRD54-BTD-wt and BTK mutants transfected separately into Cos7 cells; ANKRD54 enriched on streptavidin beads, then incubated with each BTK lysate; immunoblot (Fig 6); only the target purified

Row | Substance | binding [1] | binding [2] | other results
1 | TEC SH3 domain displayed on phage (from UniProt P42680 179-239) (domain or fragment) | binds | binds weakly | 
2 | Bruton’s Tyrosine Kinase (BTK), endogenous in Namalwa B-cells (from UniProt Q06187 1-659) |  |  | binding [3]: no binding; binding [4]: binds; binding [5]: no binding; binding [6]: binds
3 | LYN, endogenous in primary mouse spleen cells (from UniProt P25911 1-512) |  |  | binding [7]: binds weakly
4 | BTK-SH3 domain displayed on phage (from UniProt Q06187 214-274) (domain or fragment) | binds | binds weakly | 
5 | wild-type BTK expressed in Cos7 cells (from UniProt Q06187 1-659) |  |  | binding [8]: binds; binding [9]: binds
6 | BLK SH3 domain displayed on phage (from UniProt P51451 58-118) (domain or fragment) | binds | binds weakly | 
7 | PTK6 SH3 domain displayed on phage (from UniProt Q13882 8-72) (domain or fragment) | binds |  | 
8 | BTK, endogenous in primary mouse spleen cells (from UniProt P35991 1-659) |  |  | binding [7]: binds
9 | LYN SH3 domain displayed on phage (from UniProt P07948 63-123) (domain or fragment) | binds | binds weakly | 

— paper PMC5378395
